Measurements reported in PubChem BioAssay AID504793 (Drosophila RNAi Screening Center, 2011).
In all, the deposit lists about 23,000 reagents; this is an unselected part of those that have a named target and a result. In the full data, 62 (0.27%) are marked active. 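Calls come from follow-up tests whose scores are not deposited, so confirmed genes may have low counts here; counts are not normalised per plate.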 The raw values are shown without normalisation. Names joined by + are all predicted targets of the reagent. No sequences are given here.

- Aim: 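Genes required for cells to halt at G2/M after double-strand DNA breaks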 (primary screen)
- Cells: Drosophila S2R+ cells
- Reagents: long dsRNA against Drosophila genes, about 0.25 µg dsRNA per well
- Time to read-out: 4 days of dsRNA, then 4 hours of drug before read-out
- Treatment: doxorubicin 0.5 µM for 4 hours to cause double-strand breaks, in cells also given a low, harmless dose of dsRNA against nbs to sensitise the assay
- Measurement: 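Per-well count of mitotic cells stained for phospho-histone H3 after doxorubicin exposure, used as mitotic index; counts are raw and not normalised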
- Reading the numbers: mitotic cells: higher = more cells in mitosis, weaker G2 arrest
- Hit rule: 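a call needs confirmation in secondary tests, with other dsRNAs and a check of mitotic timing without damage, not just a high primary count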
- Calls: active = confirmed in follow-up tests; inactive = not confirmed

Target gene	dsRNA	mitotic cells, replicate 1	activity call
CG31601	DRSC03678	4	inactive
Or98b (Odorant receptor 98b)	DRSC16775	12	inactive
Or98b (Odorant receptor 98b)	DRSC21751		inactive
Tsp42Ee (Tetraspanin 42Ee)	DRSC05947	9	inactive
Tsp42Ee (Tetraspanin 42Ee)	DRSC29024	6	inactive
Eaf6 (Esa1-associated factor 6)	DRSC09901	4	inactive
CG10459	DRSC05991	8	inactive
CG10459	DRSC22092	6	inactive
CG7083	DRSC11136	4	inactive
CG7083	DRSC24327	5	inactive
Nepl13 (Neprilysin-like 13)	DRSC15632	14	inactive
ric8a	DRSC18093	8	inactive
ric8a	DRSC24387	7	inactive
koi (klaroid)	DRSC04980	9	inactive
CG11608	DRSC14334	7	inactive
Spn28Da (Serpin 28Da)	DRSC02162	7	inactive
CG17625	DRSC15249	6	inactive
CG12288	DRSC02155		inactive
CG32204	DRSC09574	4	inactive
CG32204	DRSC23663	6	inactive
PpV (Protein phosphatase V)	DRSC18700	30	inactive
PpV (Protein phosphatase V)	DRSC23307	5	inactive
PpV (Protein phosphatase V)	DRSC29344	8	inactive
CG10481	DRSC02063	11	inactive
eIF4E3 (eukaryotic translation initiation factor 4E3)	DRSC10952	6	inactive
CG2256	DRSC18220	11	inactive
CG2256	DRSC28187	5	inactive
Tb (Tubby)	DRSC15815	8	inactive
Tb (Tubby)	DRSC23554	10	inactive
CG33474	DRSC05218	9	inactive
Semp1 (Seminal metalloprotease-1)	DRSC01874	5	inactive
CG3420	DRSC04995	5	inactive
CG3918	DRSC23159	17	inactive
CG3918	DRSC28834	4	inactive
VhaSFD (Vacuolar H[+]-ATPase SFD subunit)	DRSC03471	5	inactive
CG3216	DRSC04347	9	inactive
CG3216	DRSC24945	8	inactive
idc (identity crisis)	DRSC15680	9	inactive
CG5687	DRSC08568	5	inactive
CG15263	DRSC01974	8	inactive
CG15263	DRSC27309	8	inactive
Hinfp (Histone H4 transcription factor)	DRSC18484	11	inactive
Hinfp (Histone H4 transcription factor)	DRSC24069	15	inactive
CG8834	DRSC07283	3	inactive
dco (discs overgrown)	DRSC16929	6	inactive
dco (discs overgrown)	DRSC29211	3	inactive
Ir41a (Ionotropic receptor 41a)	DRSC04730	9	inactive
Ir41a (Ionotropic receptor 41a)	DRSC04875	7	inactive
CG12865 (retired record)	DRSC06205	13	inactive
CG12865 (retired record)	DRSC25601	5	inactive
CG3566	DRSC18311	15	inactive
CG3566	DRSC29311	9	inactive
CG17929	DRSC15291	7	inactive
CG42613	DRSC13332	8	inactive
CG42613	DRSC14769	11	inactive
CG42613	DRSC15802	11	inactive
CG42613	DRSC25089	10	inactive
CG31710	DRSC01089	3	inactive
CG31710	DRSC22863	7	inactive
CG31710	DRSC25873	4	inactive
CG40486	DRSC20619	6	inactive
CG6700	DRSC02980	3	inactive
CG6700	DRSC25626	7	inactive
Cpr73D (Cuticular protein 73D)	DRSC11084	1	inactive
Cpr73D (Cuticular protein 73D)	DRSC26591	6	inactive
CG12951	DRSC14579	6	inactive
CG12951	DRSC25565	9	inactive
NiPp1 (Nuclear inhibitor of Protein phosphatase 1)	DRSC07307	4	inactive
Mps1 (Monopolar spindle 1)	DRSC16273	3	inactive
Membrin	DRSC10448	7	inactive
Mpp6 (M-phase phosphoprotein 6)	DRSC03169	3	inactive
Mpp6 (M-phase phosphoprotein 6)	DRSC29734	6	inactive
PMP34 (Peroxisomal Membrane Protein 34)	DRSC21939	4	inactive
CG16989	DRSC18535	9	inactive
CG16989	DRSC29403	6	inactive
CG10562	DRSC14257	9	inactive
CG10562	DRSC29099	4	inactive
GluRIIC (Glutamate receptor IIC)	DRSC00642	8	inactive
CG15919	DRSC06594	6	inactive
CG15483	DRSC02493	4	inactive
Fatp3 (Fatty acid transport protein 3)	DRSC04366	4	inactive
Fatp3 (Fatty acid transport protein 3)	DRSC29135	3	inactive
nAChRbeta3 (nicotinic Acetylcholine Receptor beta3)	DRSC00325	2	inactive
MetRS (Methionyl-tRNA synthetase)	DRSC22533	9	inactive
eIF1A (eukaryotic translation initiation factor 1A)	DRSC16937	7	inactive
SK (small conductance calcium-activated potassium channel)	DRSC17387	6	inactive
SK (small conductance calcium-activated potassium channel)	DRSC17887	15	inactive
SK (small conductance calcium-activated potassium channel)	DRSC17888	11	inactive
SK (small conductance calcium-activated potassium channel)	DRSC18353	11	inactive
SK (small conductance calcium-activated potassium channel)	DRSC27622	5	inactive
SLIRP2 (SRA stem-loop interacting RNA binding protein 2)	DRSC16363	10	inactive
SLIRP2 (SRA stem-loop interacting RNA binding protein 2)	DRSC26237	3	inactive
CG6621	DRSC16076	7	inactive
CG6621	DRSC26979	10	inactive
CG42376 + cin	DRSC18752	5	inactive
CG42376 + cin	DRSC29294	9	inactive
CG12111	DRSC17808	7	inactive
CG12111	DRSC26511	11	inactive
CG11889 + CG11891	DRSC14426	11	inactive
CG11889 + CG11891	DRSC14427	9	inactive
CG11889 + CG11891	DRSC25728	7	inactive
sona (sol narae)	DRSC04089	3	inactive
sona (sol narae)	DRSC04574	5	inactive
sona (sol narae)	DRSC04575	5	inactive
MESR4 (Misexpression suppressor of ras 4)	DRSC06901	4	inactive
CG14374	DRSC14834	3	inactive
CG10086	DRSC14183	3	inactive
Lapsyn (Leucine-rich repeat activity-regulated protein at synapses)	DRSC04249	2	inactive
CG31704	DRSC22118	10	inactive
scw (screw)	DRSC01711	4	inactive
scw (screw)	DRSC21252	3	inactive

Part of the list above, set out differently.
CG31710 [DRSC25873] → mitotic cells, replicate 1: 4; activity call: inactive
CG40486 [DRSC20619] → mitotic cells, replicate 1: 6; activity call: inactive
CG6700 [DRSC02980] → mitotic cells, replicate 1: 3; activity call: inactive
CG6700 [DRSC25626] → mitotic cells, replicate 1: 7; activity call: inactive
Cpr73D (Cuticular protein 73D) [DRSC11084] → mitotic cells, replicate 1: 1; activity call: inactive
Cpr73D (Cuticular protein 73D) [DRSC26591] → mitotic cells, replicate 1: 6; activity call: inactive
CG12951 [DRSC14579] → mitotic cells, replicate 1: 6; activity call: inactive
CG12951 [DRSC25565] → mitotic cells, replicate 1: 9; activity call: inactive
NiPp1 (Nuclear inhibitor of Protein phosphatase 1) [DRSC07307] → mitotic cells, replicate 1: 4; activity call: inactive
Mps1 (Monopolar spindle 1) [DRSC16273] → mitotic cells, replicate 1: 3; activity call: inactive
Membrin [DRSC10448] → mitotic cells, replicate 1: 7; activity call: inactive
Mpp6 (M-phase phosphoprotein 6) [DRSC03169] → mitotic cells, replicate 1: 3; activity call: inactive
Mpp6 (M-phase phosphoprotein 6) [DRSC29734] → mitotic cells, replicate 1: 6; activity call: inactive
